Measurements reported in PubChem BioAssay AID248 (DTP/NCI, 2004).
The list is a part of this screen's results and no random one: it is rich in T/C values a quarter to a half above the control, in often repeated tests (any T/C) and in doses without a T/C. Other doses and runs of a compound stand elsewhere. T/C: endpoint of the treated group in % of that of the vehicle group. Some entries give survivors of the animals treated and no T/C: the source files T/C as zero there, which appears to mark a toxic dose or a test without result, not a measured value. Some survivor counts are full or nearly so, which does not show that the dose was tolerated: survival well below the control is almost never listed, so the zero probably covers shortened survival too. Survivors were counted at the toxicity check, usually on the fifth day, unless a day is given; later deaths do not show. Schedules are NCI's codes, taken here to give the interval after Q, in days (D) or hours (H), and the number of doses after X. Some doses were run more than once; their values stand side by side, smallest first. Some schedules carry Z or #; the key to these is not given. Some structures stand for samples that the source files as different forms (salt, stereo form or complex); doses refer to the form tested. For survival time, this PubChem deposit counts one and a half times the control or more as active, and values a quarter to a half above the control carry no call in these data; other NCI protocols may use other cut-offs. Some T/C values are followed by the survivors on the day toxicity was checked, most often the fifth; without a count, all were alive then.

System: L1210 leukemia ip in BDF1 mice, survival T/C
Assay: NCI In Vivo Anticancer Drug Screen. Data for tumor model L1210 Leukemia (intraperitoneal) in B6D2F1 (BDF1) mice
Details: T/C endpoint: mean survival time, higher T/C = longer survival
[1] = dose: 100.0 mg/kg/injection, schedule: Q04DX003 (ip), vehicle: saline with Tween-80
[2] = dose: 200.0 mg/kg/injection, schedule: Q04DX003 (ip), vehicle: saline with Tween-80
[3] = dose: 400.0 mg/kg/injection, schedule: Q04DX003 (ip), vehicle: saline with Tween-80
[4] = dose: 150.0 mg/kg/injection, schedule: Q01DX001 (ip), vehicle: saline
[5] = dose: 300.0 mg/kg/injection, schedule: Q01DX001 (ip), vehicle: saline
[6] = dose: 400.0 mg/kg/injection, schedule: Q01DX001 (ip), vehicle: saline
[7] = dose: 100.0 mg/kg/injection, schedule: Q01DX009 (ip), vehicle: carboxymethylcellulose (CMC)

SMILES: CCN1CCC(CNc2cc(C)nc(/N=C(\N)Nc3ccc(Cl)c(Cl)c3)n2)C1 (centres undefined)
- survivor count [1]: 3 of 6
- survivor count [2]: 1 of 6
- survivor count [3]: 0 of 6

SMILES: CC1=C(C)CC([P+](c2ccccc2)(c2ccccc2)c2ccccc2)CC1 (centres undefined)
- survivor count (dose: 50.0 mg/kg/injection, schedule: Q01DX001 (ip), vehicle: saline with Tween-80): 2 of 3
- survivor count (dose: 100.0 mg/kg/injection, schedule: Q01DX001 (ip), vehicle: saline with Tween-80): 0 of 3
- survivor count (dose: 200.0 mg/kg/injection, schedule: Q01DX001 (ip), vehicle: saline with Tween-80): 0 of 3

SMILES: CN=C(NC)c1ccc(NC(=O)c2cc(Cl)cc(C(=O)Nc3ccc(C(=NC)NC)cc3)c2)cc1
- survivor count (dose: 30.0 mg/kg/injection, schedule: Q01DX Z (ip), vehicle: saline): 1 of 6
- survivor count (dose: 60.0 mg/kg/injection, schedule: Q01DX Z (ip), vehicle: saline): 0 of 6
- survivor count (dose: 120.0 mg/kg/injection, schedule: Q01DX Z (ip), vehicle: saline): 0 of 6

SMILES: NCCCC(N)C(=O)NCCCCCCCCCCNC(=O)C(N)CCCN (centres undefined)
- survivor count (dose: 100.0 mg/kg/injection, schedule: Q01DX Z (ip), vehicle: saline): 0 of 6
- survivor count (dose: 300.0 mg/kg/injection, schedule: Q01DX Z (ip), vehicle: saline): 0 of 6

SMILES: NC(=O)C(c1ccccc1)N1CCCCC1 (centres undefined)
- survivor count (dose: 200.0 mg/kg/injection, schedule: Q04DX003 (ip), vehicle: Klucel (hydroxypropylcellulose) (HPC)): 1 of 6
- survivor count (dose: 400.0 mg/kg/injection, schedule: Q04DX003 (ip), vehicle: Klucel (hydroxypropylcellulose) (HPC)): 0 of 6

SMILES: O=C1OC(O)C(Cl)=C1Cl (centres undefined)
- survivor count (dose: 100.0 mg/kg/injection, schedule: Q04DX002 (ip), vehicle: saline with Tween-80): 0 of 3
- survivor count (dose: 200.0 mg/kg/injection, schedule: Q04DX002 (ip), vehicle: saline with Tween-80): 0 of 3
- survivor count (dose: 400.0 mg/kg/injection, schedule: Q04DX002 (ip), vehicle: saline with Tween-80): 0 of 3

SMILES: CC1=CC23C(COC(=O)C24CO4)C(C(=O)O)=CC3C1C (centres undefined) (tested in a mixture with another compound)
- survivor count (dose: 5.0 mg/kg/injection, schedule: Q01DX001 (ip), vehicle: saline): 2 of 6
- survivor count (dose: 10.0 mg/kg/injection, schedule: Q01DX001 (ip), vehicle: saline): 0 of 6
- survivor count (dose: 20.0 mg/kg/injection, schedule: Q01DX001 (ip), vehicle: saline): 0 of 6
- survivor count (dose: 40.0 mg/kg/injection, schedule: Q01DX001 (ip), vehicle: saline): 0 of 6
- survivor count (dose: 75.0 mg/kg/injection, schedule: Q01DX001 (ip), vehicle: saline): 0 of 6
- survivor count [4]: 0 of 6
- survivor count [5]: 0 of 6

SMILES: CNC1=C(N2CC2)C(=O)C(NC)=C(N2CC2)C1=O
- T/C (dose: 0.09 mg/kg/injection, schedule: Q01DX009 (ip), vehicle: Klucel (hydroxypropylcellulose) (HPC)): 126 and 137 % of control
- T/C (dose: 0.09 mg/kg/injection, schedule: Q04DX003 (ip), vehicle: Klucel (hydroxypropylcellulose) (HPC)): 127 % of control
- T/C (dose: 0.19 mg/kg/injection, schedule: Q01DX009 (ip), vehicle: Klucel (hydroxypropylcellulose) (HPC)): 148 % of control
- T/C (dose: 0.19 mg/kg/injection, schedule: Q04DX003 (ip), vehicle: Klucel (hydroxypropylcellulose) (HPC)): 125 and 134 % of control
- T/C (dose: 0.39 mg/kg/injection, schedule: Q04DX003 (ip), vehicle: Klucel (hydroxypropylcellulose) (HPC)): 128 % of control
- T/C (dose: 0.4 mg/kg/injection, schedule: Q01DX009 (ip), vehicle: saline): 131 % of control
- T/C (dose: 0.4 mg/kg/injection, schedule: Q04DX003 (ip), vehicle: saline): 129 % of control
- T/C (dose: 0.75 mg/kg/injection, schedule: Q01DX001 (ip), vehicle: saline): 134 % of control [5 of 6 alive]
- survivor count (dose: 0.78 mg/kg/injection, schedule: Q01DX009 (ip), vehicle: Klucel (hydroxypropylcellulose) (HPC)): 3 of 6 and 6 of 6
- survivor count (dose: 1.5 mg/kg/injection, schedule: Q01DX001 (ip), vehicle: saline): 4 of 6
- survivor count (dose: 1.56 mg/kg/injection, schedule: Q04DX003 (ip), vehicle: Klucel (hydroxypropylcellulose) (HPC)): 1 of 6 and 3 of 6
- survivor count (dose: 3.0 mg/kg/injection, schedule: Q01DX001 (ip), vehicle: saline): 3 of 6
- survivor count (dose: 3.12 mg/kg/injection, schedule: Q04DX003 (ip), vehicle: Klucel (hydroxypropylcellulose) (HPC)): 2 of 6
- survivor count (dose: 6.25 mg/kg/injection, schedule: Q04DX003 (ip), vehicle: Klucel (hydroxypropylcellulose) (HPC)): 0 of 6
- survivor count (dose: 12.5 mg/kg/injection, schedule: Q04DX003 (ip), vehicle: Klucel (hydroxypropylcellulose) (HPC)): 5 of 6
- survivor count (dose: 25.0 mg/kg/injection, schedule: Q04DX003 (ip), vehicle: Klucel (hydroxypropylcellulose) (HPC)): 0 of 6
- survivor count (dose: 50.0 mg/kg/injection, schedule: Q04DX003 (ip), vehicle: Klucel (hydroxypropylcellulose) (HPC)): 0 of 6
- survivor count (dose: 100.0 mg/kg/injection, schedule: Q04DX003 (ip), vehicle: Klucel (hydroxypropylcellulose) (HPC)): 0 of 6

SMILES: COC(=O)C1C(O)CCC2CN3CCc4c([nH]c5ccccc45)C3CC21 (centres undefined)
- survivor count (dose: 200.0 mg/kg/injection, schedule: Q01DX001 (ip), vehicle: saline): 1 of 4
- survivor count (dose: 300.0 mg/kg/injection, schedule: Q01DX Z (ip), vehicle: carboxymethylcellulose (CMC)): 0 of 6
- survivor count [6]: 0 of 4

SMILES: Cc1nccn1-c1ccccc1N=Cc1ccc(N(CCCl)CCCl)cc1
- survivor count (dose: 100.0 mg/kg/injection, schedule: Q04DX002 (ip), vehicle: saline): 1 of 3
- survivor count (dose: 200.0 mg/kg/injection, schedule: Q04DX002 (ip), vehicle: saline): 0 of 3
- survivor count (dose: 400.0 mg/kg/injection, schedule: Q04DX002 (ip), vehicle: saline): 0 of 3

SMILES: C[CH2][Ge]([CH2]C)[CH2]C.C[CH2][Ge]([CH2]C)[CH2]C
- survivor count (dose: 400.0 mg/kg/injection, schedule: Q01DX001 (ip), vehicle: saline with Tween-80): 5 of 6

SMILES: Cc1cc(NC(=O)Nc2ccc(Cl)c(C(F)(F)F)c2)no1
- T/C [7]: 87, 91, 99 % of control
- survivor count [7]: 3 of 3
- T/C (dose: 200.0 mg/kg/injection, schedule: Q01DX009 (ip), vehicle: carboxymethylcellulose (CMC)): 86, 90, 93, 100 % of control
- survivor count (dose: 400.0 mg/kg/injection, schedule: Q01DX009 (ip), vehicle: carboxymethylcellulose (CMC)): 3 of 3

SMILES: O=C(NOCc1cscn1)NC1CCCCC1
- survivor count [4]: 1 of 6
- survivor count [5]: 0 of 6

SMILES: Cn1c(CC(O)(C(F)(F)F)C(F)(F)F)c(C(O)(C(F)(F)F)C(F)(F)F)c2ccccc21
- survivor count (dose: 20.0 mg/kg/injection, schedule: Q01DX009 (ip), vehicle: saline with Tween-80): 1 of 6
- survivor count [1]: 0 of 6
- survivor count [2]: 0 of 6
- survivor count [3]: 0 of 6

SMILES: c1c(NC2=NCCO2)cc2c3c1CCCN3CCC2
- survivor count (dose: 100.0 mg/kg/injection, schedule: Q01DX009 (ip), vehicle: saline): 3 of 6
- survivor count (dose: 200.0 mg/kg/injection, schedule: Q01DX009 (ip), vehicle: saline): 3 of 6

SMILES: CCCCCC(=O)C#Cc1ccccc1
- survivor count (dose: 200.0 mg/kg/injection, schedule: Q01DX009 (ip), vehicle: other): 2 of 6
- survivor count (dose: 400.0 mg/kg/injection, schedule: Q01DX009 (ip), vehicle: other): 0 of 6

SMILES: COc1ccc(C2C(=O)c3ccc(OC)c(OC)c3C2=O)cc1OC (centres undefined)
- survivor count [6]: 1 of 6

SMILES: CC(=O)C(Cl)C(O)(C(F)(F)F)C(F)(F)F (centres undefined)
- survivor count [3]: 2 of 6
